Reference: patent publication US20190194276A1 (MAYO FOUNDATION FOR MEDICAL EDUCATION AND RESEARCH, published 2019)
Results are given in words; binding and its absence hold for the method and conditions named. For part of these data: Binding seen in cells or lysates may run through a third protein. Some entries that bind do so weakly or less than the wild type. One block for each substance: values may come before it.

Chains of the proteins cited; added tags and fusions are not shown. Residues count along the entry.
UniProt Q12778: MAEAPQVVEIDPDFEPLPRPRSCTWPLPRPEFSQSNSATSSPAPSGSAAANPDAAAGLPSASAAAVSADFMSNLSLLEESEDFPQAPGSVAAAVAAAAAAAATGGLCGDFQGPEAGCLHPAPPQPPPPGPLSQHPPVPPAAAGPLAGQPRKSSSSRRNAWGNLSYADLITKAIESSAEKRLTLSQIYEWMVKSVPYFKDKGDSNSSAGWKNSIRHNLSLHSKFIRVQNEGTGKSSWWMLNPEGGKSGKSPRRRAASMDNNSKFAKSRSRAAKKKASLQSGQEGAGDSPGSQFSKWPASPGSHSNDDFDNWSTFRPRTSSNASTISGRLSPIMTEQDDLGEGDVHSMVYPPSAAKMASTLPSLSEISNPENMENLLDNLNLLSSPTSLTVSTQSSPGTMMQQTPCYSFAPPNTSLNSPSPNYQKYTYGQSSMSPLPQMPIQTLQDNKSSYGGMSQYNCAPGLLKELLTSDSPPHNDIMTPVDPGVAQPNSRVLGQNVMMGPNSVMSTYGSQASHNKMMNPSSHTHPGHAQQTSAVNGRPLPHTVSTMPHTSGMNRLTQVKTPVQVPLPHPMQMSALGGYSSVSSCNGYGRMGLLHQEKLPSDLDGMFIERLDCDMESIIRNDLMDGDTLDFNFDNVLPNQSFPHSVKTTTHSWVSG
UniProt P46940, residues 2-1657: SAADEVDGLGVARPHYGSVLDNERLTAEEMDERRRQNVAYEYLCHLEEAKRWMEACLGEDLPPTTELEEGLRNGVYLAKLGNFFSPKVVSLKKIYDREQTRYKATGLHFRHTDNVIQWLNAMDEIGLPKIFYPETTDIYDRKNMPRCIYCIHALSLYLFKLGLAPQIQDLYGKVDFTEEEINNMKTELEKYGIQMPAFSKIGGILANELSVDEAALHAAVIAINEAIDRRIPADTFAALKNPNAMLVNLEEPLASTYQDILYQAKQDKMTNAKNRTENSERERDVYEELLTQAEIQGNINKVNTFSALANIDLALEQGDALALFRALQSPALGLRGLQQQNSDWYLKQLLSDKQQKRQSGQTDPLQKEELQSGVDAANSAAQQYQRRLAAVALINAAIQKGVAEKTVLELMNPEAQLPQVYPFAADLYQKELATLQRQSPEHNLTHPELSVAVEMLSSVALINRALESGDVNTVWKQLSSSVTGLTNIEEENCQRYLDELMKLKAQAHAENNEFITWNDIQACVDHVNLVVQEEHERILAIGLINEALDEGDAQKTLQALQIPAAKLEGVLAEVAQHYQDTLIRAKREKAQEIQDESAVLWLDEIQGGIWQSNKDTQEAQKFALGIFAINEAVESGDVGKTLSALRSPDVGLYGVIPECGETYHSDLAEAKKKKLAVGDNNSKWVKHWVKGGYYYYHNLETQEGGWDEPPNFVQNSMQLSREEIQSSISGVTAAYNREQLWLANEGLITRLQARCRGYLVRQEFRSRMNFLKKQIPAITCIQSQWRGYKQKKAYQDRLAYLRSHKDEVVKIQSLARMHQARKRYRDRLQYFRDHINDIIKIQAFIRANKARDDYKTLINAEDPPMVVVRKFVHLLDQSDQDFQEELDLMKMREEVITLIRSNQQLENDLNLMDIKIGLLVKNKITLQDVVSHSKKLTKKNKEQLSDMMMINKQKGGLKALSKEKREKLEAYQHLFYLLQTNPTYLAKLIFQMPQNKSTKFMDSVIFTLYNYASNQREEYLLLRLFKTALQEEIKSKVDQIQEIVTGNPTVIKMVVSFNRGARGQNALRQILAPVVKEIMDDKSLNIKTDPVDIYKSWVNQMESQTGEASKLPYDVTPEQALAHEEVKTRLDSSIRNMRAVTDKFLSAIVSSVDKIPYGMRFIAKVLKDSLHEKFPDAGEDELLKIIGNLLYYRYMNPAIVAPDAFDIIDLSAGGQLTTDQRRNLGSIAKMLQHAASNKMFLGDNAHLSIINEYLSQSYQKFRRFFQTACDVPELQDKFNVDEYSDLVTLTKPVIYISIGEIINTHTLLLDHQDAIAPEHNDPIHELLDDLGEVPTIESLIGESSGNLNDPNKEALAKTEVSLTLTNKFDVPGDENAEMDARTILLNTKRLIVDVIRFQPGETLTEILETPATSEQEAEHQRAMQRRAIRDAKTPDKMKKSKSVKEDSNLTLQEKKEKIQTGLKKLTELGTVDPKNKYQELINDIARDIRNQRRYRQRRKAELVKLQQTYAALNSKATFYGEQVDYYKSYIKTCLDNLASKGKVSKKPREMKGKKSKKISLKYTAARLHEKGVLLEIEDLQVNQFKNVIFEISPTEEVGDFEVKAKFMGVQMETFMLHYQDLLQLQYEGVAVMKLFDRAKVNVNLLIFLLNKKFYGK
UniProt Q93009: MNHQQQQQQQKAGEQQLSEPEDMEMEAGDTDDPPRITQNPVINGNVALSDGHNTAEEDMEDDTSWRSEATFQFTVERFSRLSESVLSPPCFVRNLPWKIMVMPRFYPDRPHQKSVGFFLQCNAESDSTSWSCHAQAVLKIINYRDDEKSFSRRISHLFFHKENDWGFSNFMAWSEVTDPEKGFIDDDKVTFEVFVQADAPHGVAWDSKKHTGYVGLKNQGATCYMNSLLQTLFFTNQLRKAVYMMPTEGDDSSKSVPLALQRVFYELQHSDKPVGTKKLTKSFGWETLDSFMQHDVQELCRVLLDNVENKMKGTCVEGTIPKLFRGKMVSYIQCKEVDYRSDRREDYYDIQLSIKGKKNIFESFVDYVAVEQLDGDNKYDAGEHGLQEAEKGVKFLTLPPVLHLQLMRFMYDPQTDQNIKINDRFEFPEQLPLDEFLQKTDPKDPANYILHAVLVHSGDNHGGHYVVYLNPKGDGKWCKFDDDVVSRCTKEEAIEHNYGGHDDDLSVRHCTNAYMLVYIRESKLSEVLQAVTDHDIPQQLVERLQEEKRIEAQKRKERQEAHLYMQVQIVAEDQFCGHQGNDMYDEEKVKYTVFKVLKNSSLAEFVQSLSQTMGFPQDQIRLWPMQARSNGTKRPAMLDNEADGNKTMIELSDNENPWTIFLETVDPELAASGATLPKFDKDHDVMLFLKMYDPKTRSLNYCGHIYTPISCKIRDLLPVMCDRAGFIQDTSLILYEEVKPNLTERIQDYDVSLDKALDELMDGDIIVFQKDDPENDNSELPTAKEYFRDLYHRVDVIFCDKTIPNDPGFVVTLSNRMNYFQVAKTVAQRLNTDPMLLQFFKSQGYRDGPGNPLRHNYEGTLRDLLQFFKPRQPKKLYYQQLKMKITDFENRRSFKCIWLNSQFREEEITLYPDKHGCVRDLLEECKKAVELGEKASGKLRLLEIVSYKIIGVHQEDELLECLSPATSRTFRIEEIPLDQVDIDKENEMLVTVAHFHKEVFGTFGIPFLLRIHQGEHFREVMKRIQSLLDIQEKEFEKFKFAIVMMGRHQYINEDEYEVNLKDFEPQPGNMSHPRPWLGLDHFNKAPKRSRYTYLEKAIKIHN

Columns and labels:
endogenous FOXO1 (human) [1] = biological target: endogenous FOXO1 (human) (UniProt Q12778); experiment: GST pull-down from LNCaP whole cell lysate, Western blot
SFB-tagged FOXO1 (human) = SFB-tagged FOXO1 (human) (UniProt Q12778); experiment: TAP of SFB-FOXO1 from 293T cells, LC-MS/MS
endogenous FOXO1 (human) [2] = biological target: endogenous FOXO1 (human) (UniProt Q12778); experiment: figure legend: TAP-MS, co-IP, GST pull-down

- binding (endogenous FOXO1 (human) [1]): binds
Substance: GST-IQGAP1 recombinant protein of the coiled-coil domain (from UniProt P08515 1-218; P46940 166-670)

- binding (SFB-tagged FOXO1 (human)): binds
Substance: USP7 (from UniProt Q93009 1-1102) (enzyme)

- binding (endogenous FOXO1 (human) [2]): binds
Substance: endogenous IQGAP1 (from UniProt P46940 2-1657)
